In PubChem BioAssay AID504467 (National Center for Advancing Translational Sciences (NCATS), 2011):
Among all 330,000 compounds or so, about 7,700 (2.3%) were called active. The shares of active, inactive and inconclusive entries below differ from those in the screen. Calls follow the shape of the dose curve; as a rule, active = well fitted inhibition curve with a large enough effect; inconclusive = small, poorly fitted or top-dose-only effect, or effect the other way; inactive = flat fitted curve, though single readings scatter. Potencies of inconclusive entries are doubtful fits and often do not repeat.

Assay: qHTS screen for small molecules that inhibit ELG1-dependent DNA repair in human embryonic kidney (HEK293T) cells expressing luciferase-tagged ELG1; also: nearly all actives have a fitted effect of over 55% in size
Settings: HEK293T ELG1-luciferase reporter, luminescence, 16 h, DNA damage induced by 5-fluorouridine; activity change, negative = inhibition: at 46.1 µM (top of the series)
Method in brief: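 Luminescence from the luciferase reporter, measured 30 min after ONE-Glo reagent at room temperature, was the read-out. Beforehand, 2,000 cells per well were exposed for 16 hr at 37 °C to 5-fluorouridine together with compound or vehicle.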
% is scaled to controls: 0 for no effect and ±100 for the full control effect; potency is read from the fitted curve at half-maximal effect.

| Compound | Potency | activity change, negative = inhibition |
| --- | --- | --- |
| C=CC[C@@H](CC(=O)N[C@H](CO)Cc1ccccc1)C(=O)N[C@H](COC(=O)[C@@H](CC=C)Cc1ccc(F)cc1)Cc1c[nH]c2ccccc12 | active: 20.6 µM |  |
| C/C(CC(=O)Nc1ccc([N+](=O)[O-])cc1)=N\NC(=O)c1ccccc1O |  | inactive: -1.32% |
| Cc1ccc(-c2nc3ncccn3c2NC2CCCC2)o1 |  | inactive: -13.2% |
| COc1ccc(-c2nc(CC(=O)Nc3cccc(S(=O)(=O)NC4=NCCC4)c3)cs2)cc1 |  | inactive: -19.4% |
| CCOc1ccc(CCNC(=O)COC(=O)c2nn(C)c(=O)c3ccccc23)cc1OCC |  | inactive: -0.0259% |
| O=C(c1ccc(F)cc1)N1CCC(n2nnc3ccccc32)CC1 | inconclusive: 14.6 µM [activator, partial curve] |  |
| Cc1ccc(C)c(N2CCN(C(=O)c3ccc4nc(-c5ccco5)c(-c5ccco5)nc4c3)CC2)c1 | inconclusive: 35.5 µM [inhibitor, single point] |  |
| CCOc1ccc(C(=O)NCC2CCCO2)cc1 (configuration not stated) | inconclusive: 18.4 µM [activator, partial curve] |  |
| COc1ccccc1N1CCN(/N=C/c2cccc(O)c2)CC1 | inconclusive: 23.1 µM [activator, single point] |  |
| O=C(Cc1ccccc1)N/N=C/c1cccn1-c1ccc([N+](=O)[O-])cc1 | inconclusive: 29.1 µM [inhibitor, single point] |  |
| CN(C)CCc1cc2c(c3c1ccc1ccccc13)OCO2 | inconclusive: 29.1 µM [inhibitor, single point] |  |
| NC(=O)c1ccc(CSc2nc3ccccc3s2)cc1 | inconclusive: 23.1 µM [activator, partial curve] |  |
| O=c1[nH]c(/C(Cl)=C/c2cc(Cl)ccc2O)nc2cc(Cl)ccc12 | inconclusive: 14.6 µM [inhibitor, partial curve, poor fit] |  |
| COC(=O)c1ccc(NC(=O)c2cn(-c3cccc(C)n3)cn2)cc1 |  | inactive: 25.3% |
| Cc1ccc(S(=O)(=O)N(C)C)cc1NC(=O)c1c(-c2c(F)cccc2Cl)noc1C | active: 25.9 µM |  |
| Nc1ccc(Sc2cnn(-c3ccccc3)c(=O)c2Cl)cc1 |  | inactive: 22.3% |
| CCC(C)c1ccc(NC(=O)c2ccco2)cc1 (configuration not stated) | inconclusive: 0.517 µM [activator, full curve] |  |
| O=S(=O)(Nc1cc(Sc2ncn[nH]2)c(O)c2ccccc12)c1ccccc1 | active: 23.1 µM |  |
| O=C(N/N=C/c1ccc(OCc2ccccc2)cc1)c1cc[n+](Cc2ccccc2)cc1 | inconclusive: 18.4 µM [activator, partial curve] |  |
| COc1ccc(C(=O)CSc2nnc(CNc3ccc(C)cc3C)n2Cc2ccco2)cc1 | inconclusive: 22.4 µM [inhibitor, single point] |  |
| CCc1ccc(OCc2cccc(C(=O)N/N=C\c3cnn(C)c3C)c2)cc1 | inconclusive: 8.2 µM [activator, partial curve] |  |
| O=C(Nc1ccccc1F)c1coc(=O)c(Br)c1 | inconclusive: 9.2 µM [activator, partial curve] |  |
| N/C(Cc1ccc([N+](=O)[O-])cc1)=N\OC(=O)c1ccc2ccccc2c1 | inconclusive: 25.9 µM [inhibitor, single point] |  |
| COc1cccc(C(=O)Nc2cnn(C(C)C)c2)c1 | inconclusive: 20.6 µM [activator, partial curve] |  |

| Compound | Potency | activity change, negative = inhibition |
| --- | --- | --- |
| O=C(c1ccc(N2CCCCS2(=O)=O)cc1)N1CCN(c2ccccc2F)CC1 | inconclusive: 23.1 µM [inhibitor, partial curve] |  |
| Cc1ccc(NC(=O)CN2C(=O)C3C4C=CC(C4)C3C2=O)cc1S(=O)(=O)N(C)C (configuration not stated) |  | inactive: 10.5% |
| Cc1c(C)n(CCc2ccccc2)c2ncnc(NCCO)c12 | inconclusive: 2.31 µM [activator, partial curve] |  |
| COc1cccc(CN2CCN(Cc3cccc(Br)c3)CC2)c1OC |  | inactive: -5.39% |
| O=C1C2C3C=CC(C3)C2C(=O)N1/N=C/c1cc(Br)cc([N+](=O)[O-])c1O (configuration not stated) |  | inactive: -2.08% |
| CCCCn1c(CCC(=O)O)nc2cc(S(=O)(=O)N3CCCC3)ccc21 |  | inactive: 3.54% |
| CCOCCCNC(=S)N(Cc1ccccc1)Cc1nc2ccccc2c(=O)[nH]1 | inconclusive: 16.4 µM [inhibitor, partial curve, poor fit] |  |
| COc1cc(NC(=S)Nc2ccccn2)cc(OC)c1 |  | inactive: 5.22% |
| CCn1c(C)nc2cc(C(=O)NNC(=O)CCC3CCCC3)ccc21 | inconclusive: 23.1 µM [activator, partial curve, poor fit] |  |
| COc1cccc2c(Cl)c(CCCl)c(C)nc12 |  | inactive: 14.5% |
| CCOC(=O)Cc1csc(SCC(=O)Nc2cccc(Cl)c2)n1 | inconclusive: 13 µM [inhibitor, partial curve] |  |
| CCC(=O)N(CCC(c1ccco1)c1ccccc1OC)Cc1cccs1 (configuration not stated) | inconclusive: 16.4 µM [inhibitor, single point] |  |
| Cc1ccccc1C(=O)OCC(=O)NCc1ccco1 | inconclusive: 20.6 µM [activator, single point] |  |
| Brc1ccc(C2=CSC3=NCCN23)cc1 |  | inactive: 5.04% |
| O=S(=O)(c1ccc(NC(=S)N/N=C/c2ccc(O)c(O)c2)cc1)N1CCOCC1 |  | inactive: -11.4% |
| COc1cc(OC)c(OC)cc1/C=N/n1c(C)nc2ccccc2c1=O |  | inactive: -3.68% |
| O=S(=O)(c1cc(F)ccc1F)N1CCC2(CC1)OCCN2S(=O)(=O)c1ccccc1 |  | inactive: -14.2% |
| CS(=O)(=O)N(CC(=O)Nc1ccccc1C(=O)NCc1ccco1)c1ccccc1F |  | inactive: 7.67% |
| COC(=O)/C=C/c1ccc(-n2cncn2)cc1 | inconclusive: 29.1 µM [activator, single point] |  |
| Cc1ccc(-n2cc(CN3CCN(Cc4nccn4C)CC3)c(-c3cccc(C)c3)n2)cc1 | inconclusive: 18.3 µM [inhibitor, partial curve] |  |
| Cc1ccc(NC(=O)c2c(O)c3ccccc3n(C)c2=O)nc1 | inconclusive: 10 µM [activator, partial curve] |  |
| CN(CCOc1ccc(Cl)cc1)C(=O)CN1C(=O)NC2(CCCCC2)C1=O |  | inactive: -15.4% |
| Cc1cc(C)n2c(Nc3ccc4c(c3)OCCO4)c(-c3ccc(C)o3)nc2n1 | inconclusive: 23.1 µM [activator, single point] |  |
| COC(=O)Cn1c(C)nc2c(sc3nc(C)cc(C)c32)c1=O | inconclusive: 18.4 µM [activator, partial curve] |  |

In the list so far, 18 contain sulfur.

| Compound | Potency | activity change, negative = inhibition |
| --- | --- | --- |
| COc1ccc(-c2nc(CC(=O)Nc3cccc(S(=O)(=O)NC4=NCCC4)c3)cs2)cc1 |  | inactive: -19.4% |
| NC(=O)c1ccc(CSc2nc3ccccc3s2)cc1 | inconclusive: 23.1 µM [activator, partial curve] |  |
| Cc1ccc(S(=O)(=O)N(C)C)cc1NC(=O)c1c(-c2c(F)cccc2Cl)noc1C | active: 25.9 µM |  |
| Nc1ccc(Sc2cnn(-c3ccccc3)c(=O)c2Cl)cc1 |  | inactive: 22.3% |
| O=S(=O)(Nc1cc(Sc2ncn[nH]2)c(O)c2ccccc12)c1ccccc1 | active: 23.1 µM |  |
| COc1ccc(C(=O)CSc2nnc(CNc3ccc(C)cc3C)n2Cc2ccco2)cc1 | inconclusive: 22.4 µM [inhibitor, single point] |  |
| O=C(c1ccc(N2CCCCS2(=O)=O)cc1)N1CCN(c2ccccc2F)CC1 | inconclusive: 23.1 µM [inhibitor, partial curve] |  |
| Cc1ccc(NC(=O)CN2C(=O)C3C4C=CC(C4)C3C2=O)cc1S(=O)(=O)N(C)C (configuration not stated) |  | inactive: 10.5% |
| CCCCn1c(CCC(=O)O)nc2cc(S(=O)(=O)N3CCCC3)ccc21 |  | inactive: 3.54% |
| CCOCCCNC(=S)N(Cc1ccccc1)Cc1nc2ccccc2c(=O)[nH]1 | inconclusive: 16.4 µM [inhibitor, partial curve, poor fit] |  |
| COc1cc(NC(=S)Nc2ccccn2)cc(OC)c1 |  | inactive: 5.22% |
| CCOC(=O)Cc1csc(SCC(=O)Nc2cccc(Cl)c2)n1 | inconclusive: 13 µM [inhibitor, partial curve] |  |
| CCC(=O)N(CCC(c1ccco1)c1ccccc1OC)Cc1cccs1 (configuration not stated) | inconclusive: 16.4 µM [inhibitor, single point] |  |
| Brc1ccc(C2=CSC3=NCCN23)cc1 |  | inactive: 5.04% |
| O=S(=O)(c1ccc(NC(=S)N/N=C/c2ccc(O)c(O)c2)cc1)N1CCOCC1 |  | inactive: -11.4% |
| O=S(=O)(c1cc(F)ccc1F)N1CCC2(CC1)OCCN2S(=O)(=O)c1ccccc1 |  | inactive: -14.2% |
| CS(=O)(=O)N(CC(=O)Nc1ccccc1C(=O)NCc1ccco1)c1ccccc1F |  | inactive: 7.67% |
| COC(=O)Cn1c(C)nc2c(sc3nc(C)cc(C)c32)c1=O | inconclusive: 18.4 µM [activator, partial curve] |  |

Gathered by group: those above with a thiophene ring, fused or not

| Compound | Potency | activity change, negative = inhibition |
| --- | --- | --- |
| CCC(=O)N(CCC(c1ccco1)c1ccccc1OC)Cc1cccs1 (configuration not stated) | inconclusive: 16.4 µM [inhibitor, single point] |  |
| COC(=O)Cn1c(C)nc2c(sc3nc(C)cc(C)c32)c1=O | inconclusive: 18.4 µM [activator, partial curve] |  |

Remaining list, next part

| Compound | Potency | activity change, negative = inhibition |
| --- | --- | --- |
| O=C(NCc1cccnc1)C1CCN(S(=O)(=O)c2cc(Cl)ccc2Cl)CC1 | inconclusive: 18.3 µM [inhibitor, single point] |  |
| CS(=O)(=O)N1CCSC1c1ccc(Br)cc1 (configuration not stated) | inconclusive: 20.6 µM [inhibitor, single point] |  |
| C(=N\Nc1ncnc2sc3c(c12)CCC3)/c1ccncc1 |  | inactive: -9.48% |
| CC(C)(C)c1nnc2sc(SCC(=O)c3ccc(Cl)cc3)nn2c1=O | inconclusive: 29.1 µM [activator, single point] |  |
| CC1=NNC(=O)c2ccccc2O1 |  | inactive: 0% |
| COc1ccc(OC)c(NC(=O)COC(=O)c2ccc(OC)c(S(=O)(=O)N3CCOCC3)c2)c1 | inconclusive: 12.6 µM [inhibitor, partial curve] |  |
| CNS(=O)(=O)c1cccc(C(=O)OCC(=O)Nc2ccc(N3CCCCC3)cc2)c1 |  | inactive: 29.4% |
| Cc1cccc(Nc2nc(C)nc3c2oc2ccccc23)c1 | inconclusive: 29.1 µM [inhibitor, single point] |  |
| O=C(NCc1nnc(SCc2ccc(F)cc2)n1-c1ccccc1)C12CC3CC(CC(C3)C1)C2 | inconclusive: 29.1 µM [inhibitor, single point] |  |
| COC(=O)c1ccc(COc2ccc(C=O)cc2OC)o1 | inconclusive: 20.6 µM [activator, single point] |  |
| Cc1cc(OCC(=O)OCC(=O)N(C)Cc2ccccc2C)ccc1Cl |  | inactive: 7.8% |
| CCn1c(SCC(=O)Nc2nc(C)c(C)s2)nc2cccnc21 | inconclusive: 20.6 µM [inhibitor, single point] |  |
| CN(CC(=O)NC(=O)NC1CCCCC1)c1ccccc1 | inconclusive: 35.5 µM [activator, partial curve, poor fit] |  |
| COc1ccccc1NC(=S)Nc1ccccn1 |  | inactive: 5.79% |
| COc1ccccc1NS(=O)(=O)c1cccc(NC(=O)C2CC(=O)N(Cc3ccccc3)C2)c1 (configuration not stated) | inconclusive: 16.4 µM [inhibitor, single point] |  |
| COc1cccc(/C=N/Nc2ccc([N+](=O)[O-])cc2)c1O | inconclusive: 2.59 µM [activator, partial curve] |  |
| O=C(/C=C/c1ccc2ccccc2n1)N1CCN(S(=O)(=O)c2ccccc2F)CC1 | active: 16.4 µM |  |
| O=C(N/N=C/c1ccc(-c2cccc([N+](=O)[O-])c2)o1)c1cccs1 | inconclusive: 6.51 µM [activator, full curve] |  |
| CSc1ccccc1OCc1cc(C(=O)NCc2cccc(C)n2)no1 | inconclusive: 13 µM [activator, partial curve] |  |
| O=[N+]([O-])CC(c1ccc(F)cc1)c1c[nH]c2ccccc12 (configuration not stated) | inconclusive: 23.1 µM [inhibitor, partial curve, poor fit] |  |
| COc1ccc(Br)cc1S(=O)(=O)NCc1ccccn1 |  | inactive: -12.8% |
| C=CCn1c(=O)[nH]c2cc(C(=O)N3CCN(c4ccc(C(C)=O)cc4)CC3)ccc2c1=O | active: 18.4 µM |  |
| CC(Cc1ccccc1)C(=O)Nc1ccc(Br)cc1 (configuration not stated) | inconclusive: 16.4 µM [activator, single point] |  |
| COC(=O)CC(=O)CSc1nc2c(cc1C#N)CCCCC2 | inconclusive: 20.6 µM [activator, partial curve] |  |
